From patent publication US20040143098
For part of these data: At least one result comes from cells or an extract, where the contact may be indirect. For part of these data: Construct, isoform or probe ends are uncertain for at least one entry. For part of these data: Negatives hold for the conditions tested.

Chains of the proteins cited; added tags and fusions are not shown. A line that says so, or that is headed by a name, gives the form on record, which may keep a tag or linker.
DBF1 partial (lacking AP2 DNA binding domain) (Zea mays), one chain, as listed by the source: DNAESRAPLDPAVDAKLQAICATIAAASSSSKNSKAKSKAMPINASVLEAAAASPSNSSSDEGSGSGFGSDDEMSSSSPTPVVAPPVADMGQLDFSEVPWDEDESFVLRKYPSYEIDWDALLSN
DBF1 (one-hybrid cDNA fusion) (Zea mays), one chain, as listed by the source: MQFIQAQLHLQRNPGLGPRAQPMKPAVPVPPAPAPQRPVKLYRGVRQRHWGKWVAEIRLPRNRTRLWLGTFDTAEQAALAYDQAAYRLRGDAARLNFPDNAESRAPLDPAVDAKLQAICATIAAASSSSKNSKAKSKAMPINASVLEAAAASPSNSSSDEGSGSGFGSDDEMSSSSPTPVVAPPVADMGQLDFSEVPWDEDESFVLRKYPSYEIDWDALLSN

Experiments:
[1] = system: DBF1 (one-hybrid cDNA fusion) (Zea mays); assay: one hybrid; conditions: yeast YM4271, HIS3 (40 mM 3-AT) and lacZ reporters; protein in cells; protein details: HybriZap activation domain fusion
DBF1 (Zea mays) = assay: EMSA; conditions: purified recombinant protein, protein details: pET28 tag (about 31 aa), expressed in E. coli, label: 32P
[2] = system: DBF1 partial (lacking AP2 DNA binding domain) (Zea mays); assay: EMSA; conditions: same buffer, DNA binding domain deleted, purified recombinant protein, label: 32P

“AATTCCCGGGCCACCGACGCACGGCCGCACCGACGCACGGCCGGGCCACCGACGCACGG (double strand) [3xDRE2]”: binds [1].

“GGGGTCGACCGGGCCACCGACGCACCGGCTCGAG / GGGGCTCGAGCCGTGCGTCGGTGGCCCGGTCGA [DRE2]”: binds (DBF1 (Zea mays); 25 mM HEPES pH 7.8, 75 mM KCl, 5 mM MgCl2, poly(dI-dC), on ice, confirmed by competition); no binding [2].

“GGGGTCGACCGGGCCAGAATTCCACCGGCTCGAG / GGGGCTCGAGCCGTGGAATTCTGGCCCGGTCGA [DRE2m]”: no binding (DBF1 (Zea mays); same buffer, variant of DRE2); no binding ([2]; variant of DRE2).

“GGGGTCGAGAAGAACCGACGTGGCGGTCGAG / GGGGCTCGACCGCCACGTCTCGGTTCTTCTCGA [DRE1/ABRE1]”: no binding (DBF1 (Zea mays); same buffer).
